Assay results taken from publication PMC7840889.
These are yes or no findings as the source states them, for the method shown. Some binding calls cover weakened binding; strength is not graded here.

The chains behind the UniProt entries cited, without tags or fusion partners. Where a name states a change or a piece, a line headed by the entry shows the natural chain unless it says otherwise.
UniProt Q92574: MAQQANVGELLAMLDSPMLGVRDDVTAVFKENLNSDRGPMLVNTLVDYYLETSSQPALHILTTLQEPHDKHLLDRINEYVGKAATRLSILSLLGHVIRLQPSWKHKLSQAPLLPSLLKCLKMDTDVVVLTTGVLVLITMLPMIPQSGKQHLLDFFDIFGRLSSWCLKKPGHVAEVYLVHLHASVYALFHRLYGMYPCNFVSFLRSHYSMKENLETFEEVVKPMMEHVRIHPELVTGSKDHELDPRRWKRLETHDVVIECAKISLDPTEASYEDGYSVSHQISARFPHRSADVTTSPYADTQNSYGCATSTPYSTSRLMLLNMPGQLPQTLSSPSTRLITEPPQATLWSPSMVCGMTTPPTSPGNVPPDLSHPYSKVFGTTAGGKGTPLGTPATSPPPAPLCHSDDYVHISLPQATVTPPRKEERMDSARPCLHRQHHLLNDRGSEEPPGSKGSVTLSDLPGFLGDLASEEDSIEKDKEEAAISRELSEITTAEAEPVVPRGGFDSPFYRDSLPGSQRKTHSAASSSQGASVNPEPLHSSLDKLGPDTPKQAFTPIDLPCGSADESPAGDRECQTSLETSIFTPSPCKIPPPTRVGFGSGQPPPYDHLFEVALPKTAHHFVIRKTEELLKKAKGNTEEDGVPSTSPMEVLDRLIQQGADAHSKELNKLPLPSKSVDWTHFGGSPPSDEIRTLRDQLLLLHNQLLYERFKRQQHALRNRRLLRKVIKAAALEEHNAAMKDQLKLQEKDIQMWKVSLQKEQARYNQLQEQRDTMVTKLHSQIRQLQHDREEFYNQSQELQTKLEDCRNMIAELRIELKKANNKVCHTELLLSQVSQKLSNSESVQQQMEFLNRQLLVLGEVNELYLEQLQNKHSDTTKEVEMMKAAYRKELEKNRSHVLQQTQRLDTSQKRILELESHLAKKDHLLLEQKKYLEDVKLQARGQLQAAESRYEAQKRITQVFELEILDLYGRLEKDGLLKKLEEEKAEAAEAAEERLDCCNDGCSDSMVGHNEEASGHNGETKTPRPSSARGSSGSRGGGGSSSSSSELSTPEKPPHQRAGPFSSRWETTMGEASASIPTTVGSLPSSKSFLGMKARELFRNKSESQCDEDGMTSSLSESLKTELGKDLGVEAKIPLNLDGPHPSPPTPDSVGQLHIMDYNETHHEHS
UniProt P49815: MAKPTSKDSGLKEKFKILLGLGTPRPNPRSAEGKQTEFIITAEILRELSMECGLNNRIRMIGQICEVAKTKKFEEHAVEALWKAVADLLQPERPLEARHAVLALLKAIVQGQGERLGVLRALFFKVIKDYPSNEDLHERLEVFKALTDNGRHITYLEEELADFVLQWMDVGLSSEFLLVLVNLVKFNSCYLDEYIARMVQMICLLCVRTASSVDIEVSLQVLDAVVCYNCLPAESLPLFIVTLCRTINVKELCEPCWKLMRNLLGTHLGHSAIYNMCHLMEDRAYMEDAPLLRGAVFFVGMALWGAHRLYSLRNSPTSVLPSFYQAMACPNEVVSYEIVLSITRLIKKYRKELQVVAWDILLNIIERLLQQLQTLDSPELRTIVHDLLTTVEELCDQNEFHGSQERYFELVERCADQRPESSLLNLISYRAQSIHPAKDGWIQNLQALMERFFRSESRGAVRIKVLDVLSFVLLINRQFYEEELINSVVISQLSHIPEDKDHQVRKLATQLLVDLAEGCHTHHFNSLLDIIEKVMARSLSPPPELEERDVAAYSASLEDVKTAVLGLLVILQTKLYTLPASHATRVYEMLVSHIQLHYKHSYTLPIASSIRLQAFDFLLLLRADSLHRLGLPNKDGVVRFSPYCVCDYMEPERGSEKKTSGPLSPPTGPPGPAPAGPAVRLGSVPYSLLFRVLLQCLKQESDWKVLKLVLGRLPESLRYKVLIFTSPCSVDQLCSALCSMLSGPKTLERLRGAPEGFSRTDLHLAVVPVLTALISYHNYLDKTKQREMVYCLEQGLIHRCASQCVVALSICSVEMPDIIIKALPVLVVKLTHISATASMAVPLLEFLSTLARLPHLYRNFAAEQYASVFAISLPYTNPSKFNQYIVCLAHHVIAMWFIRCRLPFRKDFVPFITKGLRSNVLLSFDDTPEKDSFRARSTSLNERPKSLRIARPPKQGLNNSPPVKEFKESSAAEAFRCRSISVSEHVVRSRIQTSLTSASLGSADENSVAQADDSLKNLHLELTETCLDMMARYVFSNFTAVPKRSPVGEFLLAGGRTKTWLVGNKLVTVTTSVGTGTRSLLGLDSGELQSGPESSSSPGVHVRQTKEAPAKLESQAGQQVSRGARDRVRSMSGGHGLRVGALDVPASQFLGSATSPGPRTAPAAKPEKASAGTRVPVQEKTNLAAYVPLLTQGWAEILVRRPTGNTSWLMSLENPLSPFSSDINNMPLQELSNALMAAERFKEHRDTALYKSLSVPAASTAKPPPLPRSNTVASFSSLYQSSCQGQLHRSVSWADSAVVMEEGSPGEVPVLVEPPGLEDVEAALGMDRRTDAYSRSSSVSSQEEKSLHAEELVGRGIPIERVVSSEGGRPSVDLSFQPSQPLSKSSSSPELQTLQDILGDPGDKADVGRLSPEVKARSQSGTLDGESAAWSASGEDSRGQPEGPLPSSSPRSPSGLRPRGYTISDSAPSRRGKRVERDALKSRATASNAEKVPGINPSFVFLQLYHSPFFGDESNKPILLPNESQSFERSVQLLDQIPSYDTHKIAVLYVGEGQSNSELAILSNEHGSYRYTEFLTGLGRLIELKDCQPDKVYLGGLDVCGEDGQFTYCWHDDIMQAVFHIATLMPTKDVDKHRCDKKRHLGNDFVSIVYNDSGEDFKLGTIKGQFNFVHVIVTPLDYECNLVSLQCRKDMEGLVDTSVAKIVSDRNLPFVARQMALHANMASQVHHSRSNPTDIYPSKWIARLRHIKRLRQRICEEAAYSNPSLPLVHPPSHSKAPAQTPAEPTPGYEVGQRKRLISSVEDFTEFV
UniProt Q9P0N9: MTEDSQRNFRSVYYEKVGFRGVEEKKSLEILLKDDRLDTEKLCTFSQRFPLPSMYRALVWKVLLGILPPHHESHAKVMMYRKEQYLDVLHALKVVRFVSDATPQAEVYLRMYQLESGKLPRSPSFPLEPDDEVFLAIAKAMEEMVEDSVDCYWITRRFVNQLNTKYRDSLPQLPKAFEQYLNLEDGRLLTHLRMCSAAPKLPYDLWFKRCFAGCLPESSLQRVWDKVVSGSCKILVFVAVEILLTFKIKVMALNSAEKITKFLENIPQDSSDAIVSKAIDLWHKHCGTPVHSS

Legend:
[1] = target: T1, full-length human TSC protein complex (TSC1-TSC2-TBC1D7) (human) (UniProt Q92574+P49815+Q9P0N9); test: SEC; full-length TSCC on Superose 6; 20 mM Tris pH 8.0, 300 mM NaCl, 2 mM TCEP; broad peak; both purified
[2] = target: T1, full-length human TSC protein complex (TSC1-TSC2-TBC1D7) (human); test: cryo-EM micrographs; TSCC at higher concentrations, vitrified; web-like networks seen in micrographs; both purified

binding [1]: binds
binding [2]: binds
Substance: full-length human TSC protein complex (TSC1-TSC2-TBC1D7) (from UniProt Q92574-1 1-1164; P49815-1 1-1807; Q9P0N9 1-293)
